The results in this text go back to PubChem BioAssay AID2685 (National Center for Advancing Translational Sciences (NCATS), 2010).

This experiment can be described thus: qHTS Assay for Lipid Storage Modulators in Drosophila S3 Cells.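 On cell number change: cells counted by Cell Tracker Red CMTPX staining in the red channel.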 The following applies: BODIPY lipid droplet fluorescence, 18-24 h; for cell number change: measured here: cell count max response, cells fed with added oleic acid. In a few lines:
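Laser-scanning cytometry quantifies lipid droplet accumulation (500–530 nm total intensity; droplet/cell object ratio) in oleic acid-fed (400 uM added) Drosophila S3 cells treated with a concentration series. 20 uM Triacsin C defined 100% inhibition.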

Setting [1] is: measured here: lipid fluorescence (Fed channel) AC50, cells fed with added oleic acid.
[2] abbreviates: measured here: cell number channel AC50, cells fed with added oleic acid.

Structures are written as SMILES. The list shows a part of the results. The main result of the screen is listed elsewhere. These columns were measured beside it and carry no call. The list favours compounds with an active or inconclusive main result. Potencies come from curve fits of mixed quality, noted in brackets.

The term AC50 denotes the midpoint of the concentration-response curve, whichever way the signal moves. As for `Cn1c(CNC(=O)c2ccco2)nnc1SCCOc1ccccc1`, the cell number change was 21.4%. For the same compound, the AC50 under setting [1] was 1.64 µM [rising, full curve].
With `O=C1Nc2ccccc2C(=O)N2[C@H](c3ccc(F)cc3)[C@@H]3C(=O)N(Cc4ccccc4)C(=O)[C@@H]3[C@H]12`, the cell number change was -6.8%. In addition, the AC50 under setting [1] was 6.51 µM [rising, single point].
`COc1cc(OC)cc(C(=O)NCCNC(=O)c2ccccc2)c1`: the cell number change was -12.8%.
As for `CC(C)c1ccc(C2=NN(c3ccccc3)C(=O)CC2)cc1`, the cell number change is -36.7%. Besides, the AC50 under setting [2] is 18.4 µM [falling, single point]. Besides, the AC50 under setting [1] was 14.6 µM [falling, single point].
Take `COC(=O)[C@@H](C)NC(=O)c1ccc2oc(CCc3ccccc3)nc2c1`: the cell number change is -3.69%. Also, under setting [1], the AC50 is 0.00461 µM [falling, full curve, poor fit].
For `COc1ccc(CN(C)C(=O)CNC(=O)c2cccs2)c(OC)c1`, the cell number change was -12.3%.
Regarding `Cc1ccc(-c2cc(C(=O)N/N=C\c3cnn(C)c3C)c3ccccc3n2)cc1C`, the half-maximal activity concentration (AC50) under setting [2] was 0.0651 µM [rising, full curve, poor fit] and the AC50 under setting [1] was 3.66 µM [rising, partial curve].
Turning to `N/C(CSc1ccccn1)=N\OCc1c(Cl)cccc1Cl`, the cell number change was determined as 4.97%. Moreover, the AC50 under setting [1] is 2.59 µM [rising, single point].
As for `O=C(O)/C=C/c1cn(-c2ccccc2)nc1-c1ccc(-c2ccc([N+](=O)[O-])cc2)o1`, the cell number change came to 26.3%. The AC50 under setting [1] was 20.6 µM [rising, single point].
As for `CCOC(=O)N1CCN(C(=O)CS(=O)(=O)c2cn(Cc3cccc(F)c3)c3ccccc23)CC1`, under setting [2], the AC50 was 2.91 µM [rising, single point].
`COCCn1c(=O)[nH]c2cc(C(=O)N3CCN(c4ccccc4)CC3)ccc2c1=O`: the cell number change is -1.28%. Moreover, under setting [1], the AC50 is 3.66 µM [falling, full curve].
In the case of `N#CCC(=O)N/N=C/c1ccc(OCc2ccccc2)cc1`, the cell number change is -20.3%.
In the case of `Cc1cccc(OCCCC(=O)NCC(=O)Nc2cccc(C)c2C)c1`, the cell number change was -12.3%. Further, the AC50 under setting [2] was 0.00651 µM [falling, full curve, poor fit].
As to `Cc1ccc(-n2c(SCC(=O)NCC3CCCO3)nc3c(c2=O)SCC3)cc1` (centres undefined), the cell number change was -4.32%. The AC50 under setting [1] is 4.11 µM [falling, single point].
As to `Cc1c(N=C2NC(=O)/C(=C/c3cccc([N+](=O)[O-])c3)S2)c(=O)n(-c2ccccc2)n1C`, the cell number change was -13%.
For `COc1cccc2cc(C(=O)Nc3cccc(C)n3)c(=O)oc12`, the cell number change stood at 32.9%. For the same compound, the AC50 under setting [2] was 29.1 µM [rising, single point]. Under setting [1], the AC50 is 29.1 µM [rising, single point].
As for `c1ccc(OCCN2C3=NCCN3c3ccccc32)cc1`, the cell number change is -21.2%. In addition, the AC50 under setting [2] is 0.0058 µM [falling, full curve, poor fit].
In the case of `CCn1c(SCC(=O)OC(C)C)nnc1-c1ccccc1`, the cell number change was 10.7%. The AC50 under setting [1] was 0.366 µM [falling, full curve, poor fit].
As to `CCOc1ccc(CCNC(=O)c2cc3sc(Cl)cc3n2C)cc1OCC`, the cell number change is -26.7%.
Regarding `COc1ccc(S[C@@H](CCN2CC[C@H](C)CCC2=O)c2ccccc2)cc1`, the cell number change was -14.2%. For the same compound, the AC50 under setting [1] is 0.92 µM [rising, partial curve, poor fit].
As to `O=C(CCN1C(=O)c2ccccc2C1=O)Nc1sc2c(c1C(=O)NCC1CCCO1)CCC2` (centres undefined), the cell number change is 119%. Also, the AC50 under setting [2] was 20.6 µM [rising, single point]. The AC50 under setting [1] is 29.1 µM [rising, single point].
`CCC(=O)Nc1cc2nn(-c3ccc(OC)cc3)nc2cc1C`: the cell number change worked out at 16.2%. Moreover, the AC50 under setting [1] is 25.9 µM [rising, single point].
Regarding `COc1ccc(C(=O)NCc2nnc(SCC(=O)NCCc3ccccc3)o2)cc1`, the cell number change is -8.26%. The AC50 under setting [2] was 1.84 µM [rising, partial curve]. Moreover, the AC50 under setting [1] is 29.1 µM [falling, single point].
Take `CCN(CC)CCNCC(=O)N1c2ccccc2CCc2ccc(NC(=O)OC)cc21`: the cell number change is -0.676%.
On the same count and under the same terms, the figure for `COc1ccc(-c2nnc(-c3ccc(N(C)C)cc3)o2)cc1` is 9.93%.
Consider `O=C(CSc1nc(-c2ccco2)cc(C(F)(F)F)n1)N1CCN(Cc2ccccc2)CC1`, for which the cell number change was -36.6%. The AC50 under setting [2] is 18.4 µM [falling, single point]. Besides, the AC50 under setting [1] was 29.1 µM [falling, single point].
Take `O=C(Nc1nnc(C(F)(F)F)s1)c1ccc(N2C(=O)C3C4C=CC(C4)C3C2=O)cc1` (centres undefined): the cell number change was -44.2%. Moreover, the AC50 under setting [2] was 23.1 µM [falling, single point]. In addition, the concentration at half-maximal activity (AC50) under setting [1] is 18.4 µM [falling, partial curve].
On to `CC(C)C(=O)NC(=S)Nc1ccc(CN2CCOCC2)cc1`, for which the cell number change was -19.8%. Moreover, the AC50 under setting [1] is 29.1 µM [falling, single point].
`O=C(NC1CCCCCC1)C(=S)NC1CCCCC1`: the cell number change was -17.5%. In addition, under setting [1], the AC50 was 29.1 µM [rising, single point].
Consider `COC(=O)c1c(NC(=O)c2ccco2)sc2c1C(C(=O)OC)CC2` (centres undefined), for which the cell number change is -7.7%. Moreover, under setting [1], the AC50 is 3.66 µM [rising, partial curve].
`O=C(Cc1ccccc1)NCCSCc1ccccc1`: the cell number change worked out at 6.35%.
With `COCc1cccc(C2=CC(=O)C[C@H](c3ccc(F)cc3)C2)c1`, the cell number change came out at 10.1%. The AC50 under setting [1] is 0.00461 µM [rising, full curve, poor fit].
Regarding `CC1CCc2c(sc(NC(=O)CSc3ncn[nH]3)c2C#N)C1` (centres undefined), the cell number change was -0.387%. The AC50 under setting [1] is 0.116 µM [falling, full curve, poor fit].
In the case of `COc1cc(C2N3CC4(C)CN2CC(C)(C3)C4)ccc1O` (centres undefined), the cell number change stood at 17.2%. The AC50 under setting [2] is 6.51 µM [falling, partial curve].
For the compound `CN(c1ccc(C(=O)Nc2ccc(F)cc2F)cc1)S(=O)(=O)c1ccccc1`, the cell number change worked out at 2.93%. Further, the AC50 under setting [1] was 29.1 µM [rising, single point].
`Cc1[nH]c2ccccc2c1C(=O)C(=O)NCCc1ccc(S(N)(=O)=O)cc1`: the AC50 runs as follows: under setting [2], 3.26 µM [falling, single point]; under setting [1], 2.91 µM [falling, single point].
For `O=C(/C=C/c1ccc(OC2CSC2)cc1)c1ccccc1`, the cell number change worked out at 0.287%. Under setting [2], the AC50 was 0.00651 µM [rising, full curve, poor fit].
`NC(=O)C1CCN(CC(=O)Nc2cc(S(=O)(=O)N3CCOCC3)ccc2N2CCCC2)CC1`: the cell number change was 9.9%. Besides, the AC50 under setting [1] is 0.0291 µM [rising, full curve, poor fit].
As for `COc1ccc(C(=O)CSc2n[nH]c(N)n2)cc1`, the cell number change is 40.8%. Under setting [2], the AC50 is 0.164 µM [rising, partial curve].
`CCOc1ccc2nc(NC(=O)Nc3ccccc3)sc2c1`: the cell number change is -22.2%. Moreover, the AC50 under setting [1] was 2.91 µM [rising, partial curve].
Take `Cc1cc(-c2ccccc2)cc(-c2ccccc2)[n+]1C`: the cell number change is -10%. The AC50 under setting [2] was 4.11 µM [rising, single point].
`COc1ccc(N2CCN(C(=O)c3oc4ccccc4c3NC(=O)CCc3cc(OC)no3)CC2)cc1`: the cell number change is -3.67%.
Take `COc1ccccc1NC(=O)c1ccc(-n2cncn2)nc1`: the cell number change is 23.5%. For the same compound, under setting [1], the AC50 was 4.61 µM [rising, single point].
Turning to `COc1ccc(OCC2CNC(=O)O2)cc1` (centres undefined), under setting [1], the AC50 was 6.51 µM [falling, single point].
Turning to `Cc1ccc(NCc2n[nH]c(=S)n2-c2ccccc2)c(C)c1`, the cell number change was found to be 13.8%. Moreover, the AC50 under setting [2] was 0.00651 µM [rising, full curve, poor fit].
Take `COc1cccc(NC(=O)C(c2ccccc2)N2CCN(CC(=O)N3CCOCC3)CC2)c1` (centres undefined): the cell number change amounted to 7.89%. In addition, the AC50 under setting [1] is 0.13 µM [falling, full curve, poor fit].
As for `COc1ccc(/C=N/Nc2ncnc3c2[nH]c2ccc(C)cc23)c(OC)c1OC`, the cell number change was -19.3%. Also, under setting [1], the concentration at half-maximal activity (AC50) was 6.51 µM [falling, single point].
In the case of `COc1ccccc1OCC(=O)NCc1n[nH]c(=O)c2ccccc12`, the cell number change was -2.64%. Further, the concentration at half-maximal activity (AC50) under setting [1] was 0.92 µM [falling, full curve, poor fit].
For `CCOC(=O)C(=CNc1nc(-c2ccccc2)c(C(=O)Nc2ccc(-c3ccccc3)cc2)s1)C(=O)OCC`, the cell number change was -18.3%. The AC50 under setting [1] is 0.731 µM [rising, full curve].
`CC(C)CC(=O)Nc1ccc(C(=O)COC(=O)CN2C(=O)NC3(CCCCC3C)C2=O)cc1` (centres undefined): the cell number change is -27.3%. In addition, under setting [2], the AC50 is 0.00146 µM [falling, full curve, poor fit].
As for `C=CCOCC(O)CS(=O)(=O)Cc1ccc(Cl)cc1` (centres undefined), the cell number change stood at 9.64%. In addition, the AC50 under setting [2] is 0.146 µM [falling, full curve, poor fit]. The AC50 under setting [1] is 0.116 µM [falling, full curve, poor fit].
On to `CCOC(=O)c1c(C)oc2ccc(OCC(=O)C(C)(C)C)cc12`, for which the cell number change is -15.3%. Under setting [1], the AC50 was 0.731 µM [rising, single point].
Take `CCOc1ccc(S(=O)(=O)N2CCCC(C(=O)NCc3cccnc3)C2)cc1C` (centres undefined): the AC50 under setting [1] was 6.51 µM [rising, single point].
For `CC1(C)CC(=O)C=C(CN2C(=O)c3ccccc3C2=O)C1=O`, the cell number change came out at 16.9%. The concentration at half-maximal activity (AC50) under setting [1] was 3.26 µM [rising, single point].
Regarding `COc1cccc(N2C(=O)C(CC(=O)Nc3ccc(F)cc3)N(C3CCCCC3)C2=O)c1` (centres undefined), the cell number change was found to be 16.6%. Also, the AC50 under setting [1] was 2.91 µM [rising, single point].
`N#CCCn1cc(/C=C(\C#N)c2nc3ccccc3s2)c(-c2ccc(F)cc2)n1`: the AC50 is, setting by setting: under setting [2], 6.51 µM [rising, single point]; under setting [1], 6.51 µM [rising, single point].
With `O=C(NCc1ccc2c(c1)OCO2)c1cccc(N2CCCC2=O)c1`, the cell number change was -4.22%. Further, the half-maximal activity concentration (AC50) under setting [1] is 1.46 µM [rising, partial curve, poor fit].
Consider `COc1ccc(NC(=O)CSc2ncnc3c2sc2ccccc23)c(OC)c1`, for which the cell number change amounted to 1.82%. Also, the AC50 under setting [2] was 6.51 µM [falling, single point]. Moreover, the AC50 under setting [1] is 6.51 µM [falling, single point].
With `Cc1ccc(NC(=O)c2noc3c2CC(C(C)(C)C)CC3)cc1` (centres undefined), the cell number change came out at 9.35%. Besides, under setting [1], the AC50 is 0.116 µM [rising, full curve, poor fit].
